{
  "sequences": {"note": "The chains behind the UniProt entries cited, without tags or fusion partners.", "UniProt P47154, whole entry": "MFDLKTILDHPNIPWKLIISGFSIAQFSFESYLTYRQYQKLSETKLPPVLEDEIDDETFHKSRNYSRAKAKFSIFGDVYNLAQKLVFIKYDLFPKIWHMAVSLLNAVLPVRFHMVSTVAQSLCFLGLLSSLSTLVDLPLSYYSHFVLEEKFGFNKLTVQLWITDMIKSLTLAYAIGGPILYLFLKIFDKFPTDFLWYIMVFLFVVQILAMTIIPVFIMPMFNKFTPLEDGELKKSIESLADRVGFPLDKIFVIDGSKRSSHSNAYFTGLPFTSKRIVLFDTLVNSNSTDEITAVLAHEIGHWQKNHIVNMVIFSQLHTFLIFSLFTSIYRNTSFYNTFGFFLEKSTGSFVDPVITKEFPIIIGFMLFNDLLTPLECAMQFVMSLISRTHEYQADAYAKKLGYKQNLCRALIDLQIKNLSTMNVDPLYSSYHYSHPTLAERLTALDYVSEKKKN"},
  "source": "PubChem BioAssay AID488815",
  "about": "(Broad Institute, 2010)",
  "molecular_target": "CAAX prenyl protease 1 (Saccharomyces cerevisiae (strain ATCC 204508 / S288c)) (UniProt P47154)",
  "test": "Ste24 protease inhibitors, dose response, biochemical, S. cerevisiae, plate reader, cherry-pick (AID 488815);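 also: 0% = neutral control wells and -100% = no enzyme wells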",
  "conditions": "yeast Ste24 protease activity; at 10 µM (top of the series)",
  "note": "Listed are the inconclusive results; actives and inactives stand elsewhere. No rule for the calls is given here.",
  "data": [
    {"smiles": "CN1CCC(Nc2cccc(F)c2)CC1", "values": [
      {"measurement": "activity change, negative = inhibition", "result": "inconclusive: 9.96%"}
    ]}
  ]
}
